{"source": "paper PMC3701624", "about": "“Three-Dimensional Structure of Human NLRP10/PYNOD Pyrin Domain Reveals a Homotypic Interaction Site Distinct from Its Mouse Homologue” (PLoS ONE, 2013)", "binders": {"B1": {"name": "human NLRP10/PYNOD pyrin domain (residues 1-100) (protein)", "chain": "MAMAKARKPREALLWALSDLEENDFKKLKFYLRDMTLSEGQPPLARGELEGLIPVDLAELLISKYGEKEAVKVVLKGLKVMNLLELVDQLSHICLHDYRE"}}, "molecular_target": "human NLRP10/PYNOD pyrin domain (residues 1-100) (human) (UniProt Q86W26)", "assay": "SEC; huNLRP10 PYD alone, pH 7~8; both purified", "note": "Results are given in words; binding and its absence hold for the method and conditions named.", "data": [{"binder": "B1", "values": [{"measurement": "binding", "result": "no binding"}]}]}
